Measurements as given in paper PMC7226812.
No constants are given. Whether binding was seen depends on the method and setting. Binding seen in cells or lysates may run through a third protein. Here binding means that the protein was enriched with, or labelled near, the bait; the list need not be complete. A no says only that the protein was not detected with the bait.

Amino acid sequences for entries named in this document (tags omitted). A change or cut given only in a name is not applied to a line headed by its entry.
UniProt Q13619: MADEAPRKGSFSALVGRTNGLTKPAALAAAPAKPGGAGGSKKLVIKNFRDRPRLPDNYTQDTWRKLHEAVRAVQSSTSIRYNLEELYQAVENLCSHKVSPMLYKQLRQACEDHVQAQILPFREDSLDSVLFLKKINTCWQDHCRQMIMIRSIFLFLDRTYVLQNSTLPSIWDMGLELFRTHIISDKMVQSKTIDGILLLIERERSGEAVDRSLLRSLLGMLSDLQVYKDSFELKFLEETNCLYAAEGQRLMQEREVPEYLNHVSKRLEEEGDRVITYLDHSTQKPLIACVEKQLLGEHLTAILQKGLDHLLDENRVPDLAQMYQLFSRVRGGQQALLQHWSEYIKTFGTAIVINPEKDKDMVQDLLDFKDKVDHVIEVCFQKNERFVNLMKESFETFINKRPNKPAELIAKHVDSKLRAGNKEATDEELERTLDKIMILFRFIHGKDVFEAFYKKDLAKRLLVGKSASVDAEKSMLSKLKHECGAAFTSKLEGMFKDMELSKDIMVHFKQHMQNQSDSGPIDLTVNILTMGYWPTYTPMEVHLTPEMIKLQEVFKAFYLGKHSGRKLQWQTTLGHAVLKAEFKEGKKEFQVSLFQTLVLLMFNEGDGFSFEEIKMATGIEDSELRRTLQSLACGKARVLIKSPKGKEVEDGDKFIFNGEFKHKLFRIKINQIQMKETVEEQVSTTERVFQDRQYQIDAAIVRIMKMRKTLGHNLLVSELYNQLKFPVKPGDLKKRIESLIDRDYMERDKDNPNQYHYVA

How the values were obtained:
[1] = target: cullin 4A (human (endogenous in human hepatocytes of chimeric mouse liver)) (UniProt Q13619); assay: affinity purification with mass spectrometry
[2] = target: cullin 4A (human (endogenous in human hepatocytes of chimeric mouse liver)), Q13619; assay: affinity purification with mass spectrometry; settings: remark: other sources report otherwise

Binder	binding [1]	binding [2]
PAFAH1B1 (protein, UniProt P43034 1-410) MVLSQRQRDELNRAIADYLRSNGYEEAYSVFKKEAELDVNEELDKKYAGLLEKKWTSVIRLQKKVMELESKLNEAKEEFTSGGPLGQKRDPKEWIPRPPEKYALSGHRSPVTRVIFHPVFSVMVSASEDATIKVWDYETGDFERTLKGHTDSVQDISFDHSGKLLASCSADMTIKLWDFQGFECIRTMHGHDHNVSSVAIMPNGDHIVSASRDKTIKMWEVQTGYCVKTFTGHREWVRMVRPNQDGTLIASCSNDQTVRVWVVATKECKAELREHEHVVECISWAPESSYSSISEATGSETKKSGKPGPFLLSGSRDKTIKMWDVSTGMCLMTLVGHDNWVRGVLFHSGGKFILSCADDKTLRVWDYKNKRCMKTLNAHEHFVTSLDFHKTAPYVVTGSVDQTVKVWECR	binds	–
WDR26, Q9H7D7 1-661 (protein) MQANGAGGGGGGGGGGGGGGGGGGGQGQTPELACLSAQNGESSPSSSSSAGDLAHANGLLPSAPSAASNNSNSLNVNNGVPGGAAAASSATVAAASATTAASSSLATPELGSSLKKKKRLSQSDEDVIRLIGQHLNGLGLNQTVDLLMQESGCRLEHPSATKFRNHVMEGDWDKAENDLNELKPLVHSPHAIVVRGALEISQTLLGIIVRMKFLLLQQKYLEYLEDGKVLEALQVLRCELTPLKYNTERIHVLSGYLMCSHAEDLRAKAEWEGKGTASRSKLLDKLQTYLPPSVMLPPRRLQTLLRQAVELQRDRCLYHNTKLDNNLDSVSLLIDHVCSRRQFPCYTQQILTEHCNEVWFCKFSNDGTKLATGSKDTTVIIWQVDPDTHLLKLLKTLEGHAYGVSYIAWSPDDNYLVACGPDDCSELWLWNVQTGELRTKMSQSHEDSLTSVAWNPDGKRFVTGGQRGQFYQCDLDGNLLDSWEGVRVQCLWCLSDGKTVLASDTHQRIRGYNFEDLTDRNIVQEDHPIMSFTISKNGRLALLNVATQGVHLWDLQDRVLVRKYQGVTQGFYTIHSCFGGHNEDFIASGSEDHKVYIWHKRSELPIAELTGHTRTVNCVSWNPQIPSMMASASDDGTVRIWGPAPFIDHQNIEEECSSMDS	–	binds
structural maintenance of chromosomes protein 6 (protein, UniProt Q96SB8 1-1091) MAKRKEENFSSPKNAKRPRQEELEDFDKDGDEDECKGTTLTAAEVGIIESIHLKNFMCHSMLGPFKFGSNVNFVVGNNGSGKSAVLTALIVGLGGRAVATNRGSSLKGFVKDGQNSADISITLRNRGDDAFKASVYGNSILIQQHISIDGSRSYKLKSATGSVVSTRKEELIAILDHFNIQVDNPVSVLTQEMSKQFLQSKNEGDKYKFFMKATQLEQMKEDYSYIMETKERTKEQIHQGEERLTELKRQCVEKEERFQSIAGLSTMKTNLESLKHEMAWAVVNEIEKQLNAIRDNIKIGEDRAARLDRKMEEQQVRLNEAEQKYKDIQDKLEKISEETNARAPECMALKADVVAKKRAYNEAEVLYNRSLNEYKALKKDDEQLCKRIEELKKSTDQSLEPERLERQKKISWLKERVKAFQNQENSVNQEIEQFQQAIEKDKEEHGKIKREELDVKHALSYNQRQLKELKDSKTDRLKRFGPNVPALLEAIDDAYRQGHFTYKPVGPLGACIHLRDPELALAIESCLKGLLQAYCCHNHADERVLQALMKRFYLPGTSRPPIIVSEFRNEIYDVRHRAAYHPDFPTVLTALEIDNAVVANSLIDMRGIETVLLIKNNSVARAVMQSQKPPKNCREAFTADGDQVFAGRYYSSENTRPKFLSRDVDSEISDLENEVENKTAQILNLQQHLSALEKDIKHNEELLKRCQLHYKELKMKIRKNISEIRELENIEEHQSVDIATLEDEAQENKSKMKMVEEHMEQQKENMEHLKSLKIEAENKYDAIKFKINQLSELADPLKDELNLADSEVDNQKRGKRHYEEKQKEHLDTLNKKKRELDMKEKELEEKMSQARQICPERIEVEKSASILDKEINRLRQKIQAEHASHGDREEIMRQYQEARETYLDLDSKVRTLKKFIKLLGEIMEHRFKTYQQFRRCLTLRCKLYFDNLLSQRAYCGKMNFDHKNETLSISVQPGEGNKAAFNDMRALSGGERSFSTVCFILSLWSIAESPFRCLDEFDVYMDMVNRRIAMDLILKMADSQRFRQFILLTPQSMSSLPSSKLIRILRMSDPERGQTTLPFRPVTQEEDDDQR	binds	–
Zinc Finger E-Box Binding Homeobox 2 (protein, UniProt O60315 1-1214) MKQPIMADGPRCKRRKQANPRRKNVVNYDNVVDTGSETDEEDKLHIAEDDGIANPLDQETSPASVPNHESSPHVSQALLPREEEEDEIREGGVEHPWHNNEILQASVDGPEEMKEDYDTMGPEATIQTAINNGTVKNANCTSDFEEYFAKRKLEERDGHAVSIEEYLQRSDTAIIYPEAPEELSRLGTPEANGQEENDLPPGTPDAFAQLLTCPYCDRGYKRLTSLKEHIKYRHEKNEENFSCPLCSYTFAYRTQLERHMVTHKPGTDQHQMLTQGAGNRKFKCTECGKAFKYKHHLKEHLRIHSGEKPYECPNCKKRFSHSGSYSSHISSKKCIGLISVNGRMRNNIKTGSSPNSVSSSPTNSAITQLRNKLENGKPLSMSEQTGLLKIKTEPLDFNDYKVLMATHGFSGTSPFMNGGLGATSPLGVHPSAQSPMQHLGVGMEAPLLGFPTMNSNLSEVQKVLQIVDNTVSRQKMDCKAEEISKLKGYHMKDPCSQPEEQGVTSPNIPPVGLPVVSHNGATKSIIDYTLEKVNEAKACLQSLTTDSRRQISNIKKEKLRTLIDLVTDDKMIENHNISTPFSCQFCKESFPGPIPLHQHERYLCKMNEEIKAVLQPHENIVPNKAGVFVDNKALLLSSVLSEKGMTSPINPYKDHMSVLKAYYAMNMEPNSDELLKISIAVGLPQEFVKEWFEQRKVYQYSNSRSPSLERSSKPLAPNSNPPTKDSLLPRSPVKPMDSITSPSIAELHNSVTNCDPPLRLTKPSHFTNIKPVEKLDHSRSNTPSPLNLSSTSSKNSHSSSYTPNSFSSEELQAEPLDLSLPKQMKEPKSIIATKNKTKASSISLDHNSVSSSSENSDEPLNLTFIKKEFSNSNNLDNKSTNPVFSMNPFSAKPLYTALPPQSAFPPATFMPPVQTSIPGLRPYPGLDQMSFLPHMAYTYPTGAATFADMQQRRKYQRKQGFQGELLDGAQDYMSGLDDMTDSDSCLSRKKIKKTESGMYACDLCDKTFQKSSSLLRHKYEHTGKRPHQCQICKKAFKHKHHLIEHSRLHSGEKPYQCDKCGKRFSHSGSYSQHMNHRYSYCKREAEEREAAEREAREKGHLEPTELLMNRAYLQSITPQGYSDSEERESMPRDGESEKEHEKEGEDGYGKLGRQDGDEEFEEEEEESENKSMDTDPETIRDEEETGDHSMDDSSEDGKMETKSDHEEDNMEDGM	binds	–
DDB2, Q92466 1-427 (protein) MAPKKRPETQKTSEIVLRPRNKRSRSPLELEPEAKKLCAKGSGPSRRCDSDCLWVGLAGPQILPPCRSIVRTLHQHKLGRASWPSVQQGLQQSFLHTLDSYRILQKAAPFDRRATSLAWHPTHPSTVAVGSKGGDIMLWNFGIKDKPTFIKGIGAGGSITGLKFNPLNTNQFYASSMEGTTRLQDFKGNILRVFASSDTINIWFCSLDVSASSRMVVTGDNVGNVILLNMDGKELWNLRMHKKKVTHVALNPCCDWFLATASVDQTVKIWDLRQVRGKASFLYSLPHRHPVNAACFSPDGARLLTTDQKSEIRVYSASQWDCPLGLIPHPHRHFQHLTPIKAAWHPRYNLIVVGRYPDPNFKSCTPYELRTIDVFDGNSGKMMCQLYDPESSGISSLNEFNPMGDTLASAMGYHILIWSQEEARTRK	–	no binding
DCAF9 (protein, UniProt Q8N5D0 1-677) MAKVNITRDLIRRQIKERGALSFERRYHVTDPFIRRLGLEAELQGHSGCVNCLEWNEKGDLLASGSDDQHTIVWDPLHHKKLLSMHTGHTANIFSVKFLPHAGDRILITGAADSKVHVHDLTVKETIHMFGDHTNRVKRIATAPMWPNTFWSAAEDGLIRQYDLRENSKHSEVLIDLTEYCGQLVEAKCLTVNPQDNNCLAVGASGPFVRLYDIRMIHNHRKSMKQSPSAGVHTFCDRQKPLPDGAAQYYVAGHLPVKLPDYNNRLRVLVATYVTFSPNGTELLVNMGGEQVYLFDLTYKQRPYTFLLPRKCHSSGEVQNGKMSTNGVSNGVSNGLHLHSNGFRLPESRGHVSPQVELPPYLERVKQQANEAFACQQWTQAIQLYSKAVQRAPHNAMLYGNRAAAYMKRKWDGDHYDALRDCLKAISLNPCHLKAHFRLARCLFELKYVAEALECLDDFKGKFPEQAHSSACDALGRDITAALFSKNDGEEKKGPGGGAPVRLRSTSRKDSISEDEMVLRERSYDYQFRYCGHCNTTTDIKEANFFGSNAQYIVSGSDDGSFFIWEKETTNLVRVLQGDESIVNCLQPHPSYCFLATSGIDPVVRLWNPRPESEDLTGRVVEDMEGASQANQRRMNADPLEVMLLNMGYRITGLSSGGAGASDDEDSSEGQVQCRPS	no binding	–
